PubChem BioAssay AID602196 – INSERM, 2012

Aim: 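Modifiers of cisplatin sensitivity in A549 cells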
System: human A549 lung cancer cells
Reagents: siRNA pair against human genes
Time to read-out: 48 h transfection before cisplatin; time from cisplatin to read-out not stated
Challenge: cisplatin at a dose killing half of control-siRNA cells; exact dose and duration not given
Measured: 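Cisplatin cell death as a shift from the 50% death seen with control siRNA; siRNAs toxic or growth-blocking alone scored 0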
Reading the numbers: two-siRNA summed score (-2 to +2): higher = both siRNAs protect from cisplatin killing; -2 means both sensitise; mean protection from cisplatin (shift in death) and protection from cisplatin (shift in death), siRNA C: higher = protection from cisplatin killing
Rule for the call: 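siRNAs harmful alone (LDH or WST-1) get 0; others get +1 for less and -1 for more cisplatin killing; genes are active when the two siRNAs give the same sign, summing to ±2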
Calls: active = both siRNAs shift cisplatin killing the same way; inactive = no consistent shift, or siRNA harmful alone
The deposit covers about 23,000 reagents; shown is a random part of them. 455 of them (2%) were called active. 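Active includes both protection and sensitisation; some change values fall well beyond the stated -50 to +50 range.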 Unmarked entries are inactive. Reagents against one gene are numbered here. Further read-outs or replicates are left out here. Not given: the amount of reagent.

Gene | reagent | two-siRNA summed score (-2 to +2) | mean protection from cisplatin (shift in death) (%) | protection from cisplatin (shift in death), siRNA C (%)
LOC388828 | 1 | 0 | 24.3 | 26
CRELD2 (GeneID 79174) | 1 | 0 | 5.5 | 9.9
LOC340204 | 1 | 0 | 2.8 | -5.1
AKR1C4 (GeneID 1109) | 1 | 0 | 19.6 | 11.4
PKMYT1 (GeneID 9088) | 1 | -1 | -3.3 | -7.5
TMBIM6 (GeneID 7009) | 1 | -1 | -9.7 | -19.1
EXOSC1 (GeneID 51013) | 1 | 0 | 10.4 | 24.7
NEK2 (GeneID 4751) | 1 | 2 (active) | 44.2 | 47.2
FZD9 (GeneID 8326) | 1 | 0 | 2.6 | 7.3
RTRAF (GeneID 51637) | 1 | 0 | -3.4 | -17.2
EXOC4 (GeneID 60412) | 1 | 0 | 24 | 26.8
LOC401180 (retired record) (GeneID 401180) | 1 | 0 | 3 | 2.3
OR7E5P (GeneID 219445) | 1 | 0 | 2.7 | 5.8
BLOC1S2 (GeneID 282991) | 1 | 0 | 20.4 | 19.5
SERPINB5 (GeneID 5268) | 1 | -1 | -8.5 | -24.4
NUDT1 (GeneID 4521) | 1 | -1 | -6.6 | 3.1
LOC340260 | 1 | 0 | 6.1 | 14.8
COMMD8 (GeneID 54951) | 1 | 0 | 4.1 | -2.1
MGST1 (GeneID 4257) | 1 | 0 | 2.9 | -4.9
B3GALT1 (GeneID 8708) | 1 | -1 | -4.7 | -14.8
UCP3 (GeneID 7352) | 1 | 0 | -1.6 | -9
LOC441113 | 1 | 0 | 4.6 | 11.2

The list goes on; the last 7 above are carried over.
Gene | reagent | two-siRNA summed score (-2 to +2) | mean protection from cisplatin (shift in death) (%) | protection from cisplatin (shift in death), siRNA C (%)
NUDT1 (GeneID 4521) | 1 | -1 | -6.6 | 3.1
LOC340260 | 1 | 0 | 6.1 | 14.8
COMMD8 (GeneID 54951) | 1 | 0 | 4.1 | -2.1
MGST1 (GeneID 4257) | 1 | 0 | 2.9 | -4.9
B3GALT1 (GeneID 8708) | 1 | -1 | -4.7 | -14.8
UCP3 (GeneID 7352) | 1 | 0 | -1.6 | -9
LOC441113 | 1 | 0 | 4.6 | 11.2
FADS3 (GeneID 3995) | 1 | 1 | 21.3 | 29.3
PCNP (GeneID 57092) | 1 | 1 | 7.3 | -2.4
LOC442174 | 1 | 0 | -3.9 | -2.1
FBXO46 (GeneID 23403) | 1 | 0 | -0.5 | 18.6
TTC3 (GeneID 7267) | 1 | 0 | -1.2 | 1.7
MORN4 (GeneID 118812) | 1 | 0 | 7.4 | -1.1
ESF1 (GeneID 51575) | 1 | 0 | 10.8 | 9.1
LOC400566 | 1 | 0 | 10.5 | 8.3
SPATA9 (GeneID 83890) | 1 | 1 | 7.2 | -0.1
HOXD4 (GeneID 3233) | 1 | 1 | 11.5 | 10.2
ALOX5AP (GeneID 241) | 1 | 0 | 3.7 | -2.9
NRCAM (GeneID 4897) | 1 | 0 | -11.2 | -18.7
SNAPIN (GeneID 23557) | 1 | 0 | 9.6 | 6.1
ATG10 (GeneID 83734) | 1 | 0 | -6.7 | 4.7
KCTD3 (GeneID 51133) | 1 | 0 | -2.6 | -1.6
CMKLR2 (GeneID 2825) | 1 | -1 | -2.7 | -11.8
BOD1 (GeneID 91272) | 1 | 0 | -3.6 | -5.5
DISC1 (GeneID 27185) | 1 | 0 | 22.8 | 10.3
DISC1 (GeneID 27185) | 2 | 1 | 16.8 | 7.3
GABRA1 (GeneID 2554) | 1 | 0 | 9.5 | 8.9
GGT1 (GeneID 2678) | 1 | 0 | -4.8 | -9.1
OR2T11 (GeneID 127077) | 1 | 1 | 14.4 | 7.8
MYO5A (GeneID 4644) | 1 | 0 | 11.4 | 4.7
ZNF517 (GeneID 340385) | 1 | 0 | -7.1 | -4.5
EFHC1 (GeneID 114327) | 1 | 0 | -1.9 | -10.6
TTC19 (GeneID 54902) | 1 | 0 | -3.4 | 2.6
GAGE12I (GeneID 26748) | 1 | 0 | 10.8 | 7.3
ACO2 (GeneID 50) | 1 | 0 | 7.1 | 8.2
LOC442626 | 1 | 0 | 17.9 | 4.7
LOC339951 | 1 | 0 | 12.5 | 14.1
NPIPA1 (GeneID 9284) | 1 | 0 | 5.8 | 14.7
ABCA4 (GeneID 24) | 1 | -1 | 6.5 | -7.7
LOC389323 | 1 | 0 | 1.3 | 8.5
SARM1 (GeneID 23098) | 1 | 0 | -12 | -11.9
VIPR1 (GeneID 7433) | 1 | 0 | 8.3 | 4.6
